Measured values as given in patent US20070244056A1 (priority 2004, published 2007).

How the values were obtained:
[1] = tested on: MPTP-induced dopaminergic neurotoxicity (nigrostriatal dopaminergic neurons); settings: given before MPTP (25 mg/kg i.p., 4 injections); GA 100 μg/mouse s.c. 7 days before, riluzole 10 mg/kg by gavage 30 minutes before each MPTP injection; 7 days after first MPTP
[2] = tested on: human patients afflicted with an unspecified form of multiple sclerosis; settings: administered alone; data of WO 00/74676; cited from earlier work
[3] = tested on: retinal ganglion cell (RGC) death induced by glutamate; settings: given prior to glutamate (0.2 M) injection; RGCs counted 7 days after glutamate injection

Nc1nc2ccc(OC(F)(F)F)cc2s1 [riluzole, 2-amino-6-trifluoromethoxy benzothiazole]
striatal dopamine levels [1]: increases the striatal dopamine levels | increase in T2 lesion load in the brain [2]: did not alter much under treatment | number of surviving RGCs [3]: raises the number of surviving RGCs above that of the control group
